# Results: PubChem BioAssay AID1347076 (National Center for Advancing Translational Sciences (NCATS), 2019)
# Out of some 400,000 compounds screened, about 13,000 (3.2%) were called active. This list was built around the results that the source calls inconclusive (neither active nor inactive); the mix of calls is not that of the screen. Calls follow the shape of the dose curve; as a rule, active = well fitted cell-killing curve with a large enough effect; inconclusive = small, poorly fitted or top-dose-only effect, or effect the other way; inactive = flat fitted curve, though single readings scatter. A potency beside an inconclusive call is a rough fit, not a confirmed value.
# Test: qHTS assay for MDR1-selective chemotherapeutics: Primary screen using the drug-selected MDR subline cells KB-V1; also: nearly all actives have a fitted effect of over 60% in size
# Conditions: KB-V1 MDR cells viability, CellTiter-Glo, 72 h; activity change, negative = cytotoxicity: at 46.1 µM (top of the series)
# How it was run: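 Potencies derive from concentration-effect curves fitted to normalized luminescence (CellTiter-Glo) of KB-V1 cells treated for 72 h at 37 degrees C in phenol-red-free DMEM containing 10% FBS.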
# % is scaled to controls: 0 for no effect and ±100 for the full control effect; potency is read from the fitted curve at half-maximal effect.
SMILES,Potency,"activity change, negative = cytotoxicity"
Cc1ccccc1OCC(=O)N/N=C/c1ccc(Sc2nc3ccccc3s2)o1,"inconclusive: 20.6 µM [cytotoxic, single point]",
CC(C)(C)c1csc(NC(=O)c2ccc(Cl)s2)n1,"inconclusive: 20.6 µM [cytotoxic, single point]",
Cc1ccc2c(c1)[C@H]1[C@H](CO2)[C@H](c2ccccc2)[C@]2(C)C(=O)NCC(=O)N12,"inconclusive: 18.4 µM [rising, single point]",
Cc1cccnc1NC1(C(F)(F)F)N=C(c2ccccc2)NC1=O (stereo not given),"inconclusive: 23.1 µM [cytotoxic, single point]",
CCC1(C)NC(=O)N(CC(=O)NCC(=O)Nc2c(C)cc(C)cc2C)C1=O (stereo not given),,inactive: -16.8%
CC1CCN(c2ccc(-c3cccs3)nn2)CC1,"inconclusive: 1.84 µM [cytotoxic, partial curve, poor fit]",
Cc1onc(-c2ccccc2Cl)c1C(N)=O,,inactive: 0.352%
OCCN1CCN(c2nc(N3CCCCC3)nc(N3CCCCC3)n2)CC1,"inconclusive: 18.4 µM [cytotoxic, single point]",
O=C(c1ccco1)N1CCN(C(=O)c2cccs2)CC1,,inactive: -3.06%
COCCCNC(=O)CSc1nc2cc(S(=O)(=O)N3CCCCC3)ccc2o1,"inconclusive: 14.6 µM [cytotoxic, partial curve, poor fit]",
C[C@@H]1CC=C[C@@H]2[C@H]1C(=O)N(Cc1ccccc1)[C@H]2c1ccccc1Br,"inconclusive: 14.6 µM [cytotoxic, single point]",
CCOC(=O)N1CCN(C(=O)CCCn2c(=S)[nH]c3ccc(Br)cc3c2=O)CC1,active: 11.6 µM,
COc1cc(C(=O)Nc2oc(-c3ccccc3)c(-c3ccccc3)c2C#N)cc(OC)c1OC,"inconclusive: 20.6 µM [cytotoxic, partial curve]",
CCc1cccc(C)c1NC(=O)CSc1nnc(-c2cc3cc(Br)ccc3o2)n1CC,active: 20.6 µM,
N#CCc1c(C#N)c(N)nc(N2CCN(S(=O)(=O)c3ccccc3F)CC2)c1C#N,,inactive: -23.3%
Cc1ccc(-n2c(COc3ccccc3)nnc2SCC(=O)O)cc1,,inactive: 10.2%
COc1cccc(CN2CCC(C(=O)N3CCN(c4ccccc4F)CC3)CC2)c1OC,"inconclusive: 16.4 µM [cytotoxic, partial curve]",
COC(=O)c1ccc(-c2cc(CC3(C(=O)OC)CCN(C(=O)OC(C)(C)C)CC3)on2)cc1,,inactive: -0.657%
O=C(CSc1nc2ccccc2nc1Cc1ccc(Cl)cc1)N1CCCCC1,,inactive: -18.3%
COc1ccc2c(c1)C1=NN(/C(C)=C/C(C)=O)C(c3ccc(F)cc3)C1CC2 (stereo not given),active: 20.6 µM,
CCOC(CNC(=O)c1nnc(Cc2cc(OC)c(OC)c(OC)c2)o1)OCC,,inactive: -1.48%
CCCCOC(=O)c1ccc(NC(=O)c2ccc3c(c2)CCCN3S(C)(=O)=O)cc1,"inconclusive: 20.6 µM [cytotoxic, single point]",
COc1cccc(-c2cc(C(=O)NCC3CCCO3)c3ccccc3n2)c1 (stereo not given),active: 11.6 µM,

# 3 compounds out of the list, sorted by molecular weight, rising.
SMILES,Potency,"activity change, negative = cytotoxicity"
CC(C)(C)c1csc(NC(=O)c2ccc(Cl)s2)n1,"inconclusive: 20.6 µM [cytotoxic, single point]",
CCC1(C)NC(=O)N(CC(=O)NCC(=O)Nc2c(C)cc(C)cc2C)C1=O (stereo not given),,inactive: -16.8%
COc1cccc(CN2CCC(C(=O)N3CCN(c4ccccc4F)CC3)CC2)c1OC,"inconclusive: 16.4 µM [cytotoxic, partial curve]",

# Next part.

SMILES,Potency,"activity change, negative = cytotoxicity"
CCc1ccc(OCC(=O)NNC(=O)c2cc(S(=O)(=O)N3CCOCC3)ccc2N2CCCC2)cc1,"inconclusive: 11.6 µM [rising, partial curve]",
O=S(=O)(Cc1ccccc1)NCC1CCCN(Cc2cccc3nonc23)C1 (stereo not given),"inconclusive: 9.2 µM [cytotoxic, partial curve]",
CC(NC(=O)NC12CC3CC(CC(C3)C1)C2)c1ccc2c(c1)OCO2 (stereo not given),"inconclusive: 29.1 µM [cytotoxic, partial curve, poor fit]",
COc1ccc(C2CC(O)(c3ccccc3)Oc3c(C)ccc(C)c32)cc1 (stereo not given),"inconclusive: 32.6 µM [cytotoxic, partial curve, poor fit]",
Cc1cccn2c(=O)c3cc(C(=O)N4c5ccccc5CC4C)n(C)c3nc12 (stereo not given),"inconclusive: 29.1 µM [cytotoxic, single point]",
Cc1ccc(C)c(NC(=O)CCN2CCC(C)CC2)c1,"inconclusive: 25.9 µM [cytotoxic, single point]",
O=C(NCCCc1nc2ccccc2[nH]1)c1cccs1,,inactive: -1.6%
Cc1ccc(C(=O)N2CCC(C(=O)c3c(C)cc(C)cc3C)CC2)cc1,,inactive: 0%
Cc1cc(=O)n2nc(N3CCC(C(=O)NCCCOC(C)C)CC3)sc2n1,"inconclusive: 13 µM [rising, partial curve]",
C/C=C(/C)C(=O)O[C@@H]1c2c(ccc3ccc(=O)oc23)O[C@@H]1C(C)(C)OC(=O)/C(C)=C\C,active: 6.51 µM,
Cc1c(NS(=O)(=O)c2ccc(NC3CCCC3)c([N+](=O)[O-])c2)c(=O)n(-c2ccccc2)n1C,"inconclusive: 11.6 µM [cytotoxic, partial curve, poor fit]",
Cc1nn(-c2ccc(F)cc2)c(-n2cccc2)c1C(=O)N1CCCCC1C (stereo not given),"inconclusive: 16.4 µM [cytotoxic, partial curve, poor fit]",
COc1cccc(/C=N\NC(C)=O)c1OC/C=C/c1ccccc1,"inconclusive: 23.1 µM [cytotoxic, single point]",
Cc1ccc(C)c(-c2cc(C(=O)Nc3nccs3)c3ccccc3n2)c1,"inconclusive: 20.6 µM [cytotoxic, partial curve, poor fit]",
O=C(NC12CC3CC(CC(C3)C1)C2)N1CCN(c2ccccc2)CC1,,inactive: 2.27%
O=C(CC1NCCNC1=O)Nc1ccc(F)c(Cl)c1 (stereo not given),,inactive: 8%
C/C(Cl)=C/Cn1c(SC(C)C)nc2c1c(=O)[nH]c(=O)n2C,"inconclusive: 29.1 µM [cytotoxic, single point]",
CSC1=N/C(=C\c2cccnc2)C(=O)N1c1ccccc1,,inactive: 5.06%
O=C(Cc1ccccc1)N/N=C/c1ccccc1OCc1ccc(Cl)cc1,,inactive: -26.6%
COc1ccc(Nc2ncc(C(=O)Nc3ccc(F)cc3F)c3ccccc23)cc1,"inconclusive: 23.1 µM [cytotoxic, single point]",
CCCOc1ccc(/C=C2\SC(N)=NC2=O)cc1OC,"inconclusive: 32.6 µM [rising, single point]",
COc1ccccc1C1c2[nH]c3ccccc3c2CCN1Cc1ccc(NC(C)=O)s1 (stereo not given),"inconclusive: 16.4 µM [cytotoxic, partial curve, poor fit]",
